Reference: doi:10.1101/2023.02.14.528378
These are yes or no findings as the source states them, for the method shown. Binding seen in cells or lysates may run through a third protein. Some entries that bind do so weakly or less than the wild type. Tags and fused reporters may be left off the sequences shown.

Target: T1, PINK1 tagged with either LgBiT or SmBiT, Q9BXM7
T1 chain: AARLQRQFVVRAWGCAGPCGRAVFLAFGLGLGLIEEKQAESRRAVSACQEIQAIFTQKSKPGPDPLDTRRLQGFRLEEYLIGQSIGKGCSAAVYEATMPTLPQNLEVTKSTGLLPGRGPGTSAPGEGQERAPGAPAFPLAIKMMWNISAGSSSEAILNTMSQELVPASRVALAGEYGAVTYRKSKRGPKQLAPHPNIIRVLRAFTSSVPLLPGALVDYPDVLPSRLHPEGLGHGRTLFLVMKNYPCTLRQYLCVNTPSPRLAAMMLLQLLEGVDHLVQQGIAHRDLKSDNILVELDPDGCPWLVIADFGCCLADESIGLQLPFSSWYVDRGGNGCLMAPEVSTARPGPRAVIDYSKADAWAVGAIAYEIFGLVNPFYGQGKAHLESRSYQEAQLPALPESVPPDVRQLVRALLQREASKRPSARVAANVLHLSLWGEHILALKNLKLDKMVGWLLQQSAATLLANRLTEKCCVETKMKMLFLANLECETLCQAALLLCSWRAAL
Experiment: split reporter
Settings: remark: other sources report otherwise

B1: PINK1 tagged with either LgBiT or SmBiT, Q9BXM7 78-581 (protein)
chain: T1 chain
binding: binds
